The supplement of paper PMC12823440, “Inhibitors supercharge kinase turnover through native proteolytic circuits” (Nature, 2025)
Structures can show the parent of a compound that is named as a salt. The list shows a part of the results. The calls rarely recur for the same compound in another form.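 Kinases were expressed as nanoluciferase fusions in K562 cells and luminescence was read every 4 h between 2 and 18 h as percent of control, DMSO set to 100% and a positive control to 0%. A time point counts as decreased when the signal drops significantly (2 sigma). The hit call is the authors' own, does not follow from the count of time points alone, and its rule is not shown.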

These molecules were tested against RAF1_S257L (clone: RAF1_mut) (UniProt P04049) (assay: kinase-Nluc reporter destabilization hit call (1 = scored as downregulated) (binary); higher = compound decreases kinase abundance). Details: 10 µM; K562; 2-18 h.

kinase-Nluc reporter destabilization hit call, inactive:
COc1cc2nccc(Oc3ccc(NC(=O)C4(C(=O)Nc5ccc(F)cc5)CC4)cc3)c2cc1OC [Cabozantinib (S-malate)] 0
Cn1cc(-c2cnc3ccc4ccc(CS(=O)(=O)NCc5ccccn5)cc4c(=O)c3c2)cn1 [MK-8033 (hydrochloride)] 0
CNC(=O)c1ccc(Nc2ncc(C(F)(F)F)c(NCc3nccnc3N(C)S(C)(=O)=O)n2)cc1 [Defactinib] 0
N#CCNC(=O)c1ccc(-c2ccnc(Nc3ccc(N4CCOCC4)cc3)n2)cc1 [Momelotinib] 0
CC(=O)c1c(C)c2cnc(Nc3ccc(N4CCNCC4)cn3)nc2n(C2CCCC2)c1=O [Palbociclib (isethionate)] 0
Nc1cncc(-c2cn3ccnc3c(Nc3ccc(N4CCN(C5COC5)CC4)cc3)n2)n1 [Lanraplenib (succinate)] 0
C#Cc1cccc(Nc2ncnc3cc4c(cc23)OCCOCCOCCO4)c1 [Icotinib] 0
O=C(O)c1ccc2c(c1)nc(Nc1cccc(Cl)c1)c1ccncc12 [Silmitasertib (sodium salt)] 0
CC(C)Nc1cc(-c2c[nH]c(C(=O)N[C@H](CO)c3cccc(Cl)c3)c2)c(Cl)cn1 [Ulixertinib (hydrochloride)] 0
C=CC(=O)N1CCN(c2ncnc3c(F)c(-c4c(O)cccc4F)c(Cl)cc23)CC1 0
CN(C)C(=O)c1cc2cnc(Nc3ccc(N4CCNCC4)cn3)nc2n1C1CCCC1 [Ribociclib] 0

Reprinted at random: 2 compounds from above, in no set order.
kinase-Nluc reporter destabilization hit call, inactive:
CC(=O)c1c(C)c2cnc(Nc3ccc(N4CCNCC4)cn3)nc2n(C2CCCC2)c1=O [Palbociclib (isethionate)] 0
Cn1cc(-c2cnc3ccc4ccc(CS(=O)(=O)NCc5ccccn5)cc4c(=O)c3c2)cn1 [MK-8033 (hydrochloride)] 0
